From US11970458B1, “4,5-bis(4-bromophenyl)-1-hexyl-2-(4-nitrophenyl)-1H-imidazole as an antimicrobial compound” (KING FAISAL UNIVERSITY, priority 2023, dated 2024)
At least one compound was matched to its structure with a doubt left.

What was measured:
Assay in all cases: antimicrobial screening by agar dilution
Assay type in all cases: cell-based
Candida albicans = system: Candida albicans
Description: (§1) The antimicrobial properties of the 4,5-bis(4-bromophenyl)-1-hexyl-2-(4-nitrophenyl)-1H-imidazole was studied by the method of agar dilution. Test solutions of each compound was prepared in concentration of 1% using dimethylformamide as a solvent then they were diluted in physiological solution to obtain the final experimental dilutions 1:100, 1:200, 1:400, 1:800. The effect of these substances were compared with furacillin in a controlled study. The testing microbes used were gram positive bacteria Staphylococcus aureus, gram negative bacteria Pseudomonas aeruginosa and Escherichia coli and Candida albicans fungi were taken. The experiments used for this survey were meat-pentonlu agar (EPA) for cultivation of bacteria and Saburo environment for fungi. Each experiment used 1 ml of test solution on each plate 500 min. Add 2 drops of emulsified with microbes feel. All experimental samples were taken from the agar after 10, 20, 40, 60 minutes in the environment on the basis of Patrk planted. Bacteria were cultivated at a temperature of 37° C. for 1 day and the mushroom was kept in a thermostat for […] at a temperature of 28° C. Then results were checked.

Escherichia coli = system: Escherichia coli
Description: as §1

Pseudomonas aeruginosa = system: Pseudomonas aeruginosa
Description: as §1

Staphylococcus aureus = system: Staphylococcus aureus
Description: as §1

[1] = dilution rate 1:100, exposure time 10 min
[2] = dilution rate 1:100, exposure time 20 min
[3] = dilution rate 1:100, exposure time 40 min
[4] = dilution rate 1:100, exposure time 60 min
[5] = dilution rate 1:200, exposure time 10 min
[6] = dilution rate 1:200, exposure time 20 min
[7] = dilution rate 1:200, exposure time 40 min
[8] = dilution rate 1:200, exposure time 60 min
[9] = dilution rate 1:400, exposure time 10 min
[10] = dilution rate 1:400, exposure time 20 min
[11] = dilution rate 1:400, exposure time 40 min
[12] = dilution rate 1:400, exposure time 60 min
[13] = dilution rate 1:800, exposure time 10 min
[14] = dilution rate 1:800, exposure time 20 min
[15] = dilution rate 1:800, exposure time 40 min
[16] = dilution rate 1:800, exposure time 60 min

**Q.** Which results are given for `NC(=O)N/N=C/c1ccc([N+](=O)[O-])o1` [Furacilin]?
**A.** antimicrobial activity (Candida albicans; [1]): −; antimicrobial activity (Candida albicans; [2]): −; antimicrobial activity (Candida albicans; [3]): +; antimicrobial activity (Candida albicans; [4]): +; antimicrobial activity (Candida albicans; [5]): +; antimicrobial activity (Candida albicans; [6]): +; antimicrobial activity (Candida albicans; [7]): +; antimicrobial activity (Candida albicans; [8]): +; antimicrobial activity (Candida albicans; [9]): +; antimicrobial activity (Candida albicans; [10]): +; antimicrobial activity (Candida albicans; [11]): +; antimicrobial activity (Candida albicans; [12]): +; antimicrobial activity (Candida albicans; [13]): +; antimicrobial activity (Candida albicans; [14]): +; antimicrobial activity (Candida albicans; [15]): +; antimicrobial activity (Candida albicans; [16]): +; antimicrobial activity (Escherichia coli; [1]): −; antimicrobial activity (Escherichia coli; [2]): −; antimicrobial activity (Escherichia coli; [3]): −; antimicrobial activity (Escherichia coli; [4]): −; antimicrobial activity (Escherichia coli; [5]): +; antimicrobial activity (Escherichia coli; [6]): +; antimicrobial activity (Escherichia coli; [7]): +; antimicrobial activity (Escherichia coli; [8]): +; antimicrobial activity (Escherichia coli; [9]): +; antimicrobial activity (Escherichia coli; [10]): +; antimicrobial activity (Escherichia coli; [11]): +; antimicrobial activity (Escherichia coli; [12]): +; antimicrobial activity (Escherichia coli; [13]): +; antimicrobial activity (Escherichia coli; [14]): +; antimicrobial activity (Escherichia coli; [15]): +; antimicrobial activity (Escherichia coli; [16]): +; antimicrobial activity (Pseudomonas aeruginosa; [1]): +; antimicrobial activity (Pseudomonas aeruginosa; [2]): +; antimicrobial activity (Pseudomonas aeruginosa; [3]): +; antimicrobial activity (Pseudomonas aeruginosa; [4]): +; antimicrobial activity (Pseudomonas aeruginosa; [5]): +; antimicrobial activity (Pseudomonas aeruginosa; [6]): +; antimicrobial activity (Pseudomonas aeruginosa; [7]): +; antimicrobial activity (Pseudomonas aeruginosa; [8]): +; antimicrobial activity (Pseudomonas aeruginosa; [9]): +; antimicrobial activity (Pseudomonas aeruginosa; [10]): +; antimicrobial activity (Pseudomonas aeruginosa; [11]): +; antimicrobial activity (Pseudomonas aeruginosa; [12]): +; antimicrobial activity (Pseudomonas aeruginosa; [13]): +; antimicrobial activity (Pseudomonas aeruginosa; [14]): +; antimicrobial activity (Pseudomonas aeruginosa; [15]): +; antimicrobial activity (Pseudomonas aeruginosa; [16]): +; antimicrobial activity (Staphylococcus aureus; [1]): −; antimicrobial activity (Staphylococcus aureus; [2]): −; antimicrobial activity (Staphylococcus aureus; [3]): −; antimicrobial activity (Staphylococcus aureus; [4]): −; antimicrobial activity (Staphylococcus aureus; [5]): +; antimicrobial activity (Staphylococcus aureus; [6]): +; antimicrobial activity (Staphylococcus aureus; [7]): +; antimicrobial activity (Staphylococcus aureus; [8]): +; antimicrobial activity (Staphylococcus aureus; [9]): +; antimicrobial activity (Staphylococcus aureus; [10]): +; antimicrobial activity (Staphylococcus aureus; [11]): +; antimicrobial activity (Staphylococcus aureus; [12]): +; antimicrobial activity (Staphylococcus aureus; [13]): +; antimicrobial activity (Staphylococcus aureus; [14]): +; antimicrobial activity (Staphylococcus aureus; [15]): +; antimicrobial activity (Staphylococcus aureus; [16]): +
